Test results: article PMC7900238, “A meet-up of two second messengers: the c-di-AMP receptor DarB controls (p)ppGpp synthesis in Bacillus subtilis” (Nature Communications, 2021)
No constants are given. Whether binding was seen depends on the method and setting. Binding seen in cells or lysates may run through a third protein.

Biological target: T1, DarB-Strep (B. subtilis) (UniProt O31698)
T1 sequence: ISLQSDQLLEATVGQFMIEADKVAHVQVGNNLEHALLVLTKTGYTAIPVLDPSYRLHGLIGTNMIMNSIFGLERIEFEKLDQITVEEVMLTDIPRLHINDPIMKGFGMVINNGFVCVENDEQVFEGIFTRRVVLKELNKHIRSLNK
Test: pull-down; in vivo: B. subtilis GP3429 (Rel-His6) with pGP767 (DarB-Strep) grown in MSSM medium with 0.1 mM potassium; DarB-Strep purified from crude extract on a StrepTactin column; eluates analysed by Western blot (anti-His, anti-Strep) and mass spectrometry

With “SasB, endogenous (B. subtilis (endogenous in GP3429)) (enzyme)” the binding was “no binding”.

In the case of “SasA, endogenous (B. subtilis (endogenous in GP3429)) (enzyme)”, the binding is reported as “no binding”.
